Data: PubChem BioAssay AID330 (DTP/NCI, 2004)
The list shows only some results of the screen, not a fair sample: it gathers tests that were run many times, whatever their T/C, doses with no T/C, and many T/C values between a quarter and a half above the control. Other doses and runs of a compound stand elsewhere. T/C is the treated group as % of the vehicle group. Some entries give survivors of the animals treated and no T/C: the source holds a T/C of zero for them, seemingly a mark for toxic or unscored doses. Some doses without a T/C left all or most animals alive at the check, yet need not have been tolerated: survival well below the control is almost never listed, so the zero probably covers shortened survival too. Survivors were counted at the toxicity check, usually on the fifth day, unless a day is given; later deaths do not show. Schedule codes are those of the source, taken here to give the interval after Q, in days (D) or hours (H), and the number of doses after X. Some doses were run more than once; the results are listed from low to high. Where survival is the endpoint, this PubChem deposit counts one and a half times the control or more as active, and values a quarter to a half above the control carry no call in these data; other NCI protocols may use other cut-offs. Some T/C values are followed by the survivors on the day toxicity was checked, most often the fifth; without a count, all were alive then.

Tested on: P388 leukemia ip, CD2F1 mice, survival T/C
Test: NCI In Vivo Anticancer Drug Screen. Data for tumor model P388 Leukemia (intraperitoneal) in CD2F1 (CDF1) mice
Conditions: T/C endpoint: median survival time, higher T/C = longer survival
[1] = dose: 32.0 mg/kg/injection, schedule: Q04DX003 (ip), vehicle: saline
[2] = dose: 100.0 mg/kg/injection, schedule: Q01DX009 (ip), vehicle: saline with Tween-80
[3] = dose: 200.0 mg/kg/injection, schedule: Q01DX009 (ip), vehicle: saline with Tween-80
[4] = dose: 200.0 mg/kg/injection, schedule: Q01DX009 (ip), vehicle: Klucel (hydroxypropylcellulose) (HPC)
[5] = dose: 100.0 mg/kg/injection, schedule: Q04DX003 (ip), vehicle: saline
[6] = dose: 200.0 mg/kg/injection, schedule: Q01DX009 (ip), vehicle: saline
[7] = dose: 200.0 mg/kg/injection, schedule: Q01DX005 (ip), vehicle: Klucel (hydroxypropylcellulose) (HPC)
[8] = dose: 60.0 mg/kg/injection, schedule: Q01DX005 (ip), vehicle: saline with Tween-80
[9] = dose: 100.0 mg/kg/injection, schedule: Q01DX009 (ip), vehicle: other
[10] = dose: 120.0 mg/kg/injection, schedule: Q01DX005 (ip), vehicle: saline with Tween-80
[11] = dose: 240.0 mg/kg/injection, schedule: Q01DX005 (ip), vehicle: saline with Tween-80

## COc1cccc2c1C(=O)c1c(O)c3c(c(O)c1C2=O)C[C@@](O)(C(=O)COC(=O)c1cccnc1)C[C@@H]3OC1CC(N)C(O)C(C)O1 (stereo partly specified)
dose: 0.25 mg/kg/injection, schedule: Q01DX009 (ip), vehicle: water
  T/C: 149 % of control
dose: 2.0 mg/kg/injection, schedule: Q01DX009 (ip), vehicle: saline with Tween-80
  T/C: 136 % of control
dose: 2.0 mg/kg/injection, schedule: Q04DX003 (ip), vehicle: saline
  T/C: 139 % of control
dose: 4.0 mg/kg/injection, schedule: Q04DX003 (ip), vehicle: saline
  T/C: 147 % of control
dose: 8.0 mg/kg/injection, schedule: Q04DX003 (ip), vehicle: saline
  T/C: 147 % of control
[1]
  T/C: 134 % of control
  survivor count: 4 of 6
dose: 32.0 mg/kg/injection, schedule: Q04DX003 (ip), vehicle: water
  T/C: 125 % of control
dose: 64.0 mg/kg/injection, schedule: Q04DX003 (ip), vehicle: saline
  survivor count: 4 of 6
dose: 128.0 mg/kg/injection, schedule: Q04DX003 (ip), vehicle: saline
  survivor count: 0 of 6 and 6 of 6

## c1cc2sc3ccc(OCCCN4CCCCC4)cc3c2cc1OCCCN1CCCCC1
dose: 50.0 mg/kg/injection, schedule: Q01DX009 (ip), vehicle: saline with Tween-80
  survivor count: 1 of 6
[2]
  survivor count: 0 of 6
[3]
  survivor count: 0 of 6

## O=C1c2ccccc2C(=O)C(Cl)C1Cl (stereo unspecified)
dose: 6.25 mg/kg/injection, schedule: Q01DX009 (ip), vehicle: saline with Tween-80
  survivor count: 3 of 6
dose: 12.5 mg/kg/injection, schedule: Q01DX009 (ip), vehicle: saline with Tween-80
  survivor count: 0 of 6

## COC1c2ccccc2C=CN1C#N (stereo unspecified)
dose: 200.0 mg/kg/injection, schedule: Q01DX005 (ip), vehicle: distilled water + Tween-80 + alcohol
  survivor count: 0 of 6

## CC(=O)C(=Cc1ccc(Cl)cc1)C(C)=O
dose: 200.0 mg/kg/injection, schedule: Q01DX005 (ip), vehicle: saline with Tween-80
  survivor count: 3 of 5

## O=S(=O)(Cl)C(F)(F)C(F)(F)C(F)(F)C(F)(F)C(F)(F)C(F)(F)F
[3]
  survivor count: 6 of 6

## C1CCC([Se][Se]C2CCCCC2)CC1
[4]
  survivor count: 1 of 6

## C1=C([P+](c2ccccc2)(c2ccccc2)c2ccccc2)CCCC1
dose: 6.25 mg/kg/injection, schedule: Q01DX009 (ip), vehicle: Klucel (hydroxypropylcellulose) (HPC)
  T/C: 137 % of control
dose: 12.5 mg/kg/injection, schedule: Q01DX009 (ip), vehicle: Klucel (hydroxypropylcellulose) (HPC)
  survivor count: 6 of 6
dose: 25.0 mg/kg/injection, schedule: Q01DX009 (ip), vehicle: Klucel (hydroxypropylcellulose) (HPC)
  survivor count: 0 of 6
dose: 50.0 mg/kg/injection, schedule: Q01DX009 (ip), vehicle: Klucel (hydroxypropylcellulose) (HPC)
  survivor count: 0 of 6
dose: 100.0 mg/kg/injection, schedule: Q01DX009 (ip), vehicle: Klucel (hydroxypropylcellulose) (HPC)
  survivor count: 0 of 6
[4]
  survivor count: 0 of 6

## COc1cc(Br)cc(/C=C(\C)[N+](=O)[O-])c1O
[5]
  T/C: 126 % of control [5 of 6 alive]
  survivor count: 5 of 6
dose: 200.0 mg/kg/injection, schedule: Q04DX003 (ip), vehicle: saline
  survivor count: 5 of 6
dose: 400.0 mg/kg/injection, schedule: Q04DX003 (ip), vehicle: saline
  survivor count: 0 of 6

## COC1=C(N)C(=O)c2nc(-c3ccccc3N)ccc2C1=O
[6]
  T/C: 128 % of control

## Cc1c(O)c2ccccc2c2c1sc(NCCCN(CCO)CCO)[n+]2C
dose: 60.0 mg/kg/injection, schedule: Q01DX005 (ip), vehicle: saline
  survivor count: 2 of 6
dose: 120.0 mg/kg/injection, schedule: Q01DX005 (ip), vehicle: saline
  survivor count: 0 of 6
dose: 240.0 mg/kg/injection, schedule: Q01DX005 (ip), vehicle: saline
  survivor count: 0 of 6

## CSCCC(NC(=O)OCC1c2ccccc2-c2ccccc21)C(=O)O (stereo unspecified)
[7]
  survivor count: 2 of 6

## Nc1ccc(CCCCc2ccc(S(=O)(=O)F)cc2Cl)c(Cl)c1
[8]
  survivor count: 6 of 6

## CCN(CC)C1CC(C)(O)Cc2cc3c(c(O)c21)C(=O)c1c(O)cc2c(c1C3=O)OC1OC2(C)C(O)C(N(C)C)C1O (stereo unspecified)
dose: 6.25 mg/kg/injection, schedule: Q01DX009 (ip), vehicle: other
  T/C: 134 % of control
dose: 12.5 mg/kg/injection, schedule: Q01DX009 (ip), vehicle: other
  T/C: 133 % of control
dose: 25.0 mg/kg/injection, schedule: Q01DX009 (ip), vehicle: other
  T/C: 139 % of control
[9]
  survivor count: 3 of 6

## O=C1C(c2ccccc2)=C(c2ccccc2)C2(c3ccccc3)C=NNC12c1ccccc1 (stereo unspecified)
dose: 25.0 mg/kg/injection, schedule: Q01DX005 (ip), vehicle: Klucel (hydroxypropylcellulose) (HPC)
  survivor count: 5 of 5
dose: 100.0 mg/kg/injection, schedule: Q04DX002 (ip), vehicle: Klucel (hydroxypropylcellulose) (HPC)
  survivor count: 6 of 6
dose: 200.0 mg/kg/injection, schedule: Q04DX002 (ip), vehicle: Klucel (hydroxypropylcellulose) (HPC)
  survivor count: 4 of 6
dose: 400.0 mg/kg/injection, schedule: Q04DX002 (ip), vehicle: Klucel (hydroxypropylcellulose) (HPC)
  survivor count: 0 of 6

## Cc1cnc2c(N)cc(C)c(C)c2c1
[2]
  survivor count: 1 of 6
[3]
  survivor count: 0 of 6

## C=CCN(CC=C)c1cc(NN)nnc1Cl
[9]
  survivor count: 0 of 6
dose: 200.0 mg/kg/injection, schedule: Q01DX009 (ip), vehicle: other
  survivor count: 0 of 6
dose: 400.0 mg/kg/injection, schedule: Q01DX009 (ip), vehicle: other
  survivor count: 0 of 6

## CC(=O)OC/C(C)=N\NS(=O)(=O)c1cc(Cl)c(Cl)cc1Cl
[6]
  survivor count: 6 of 6

## COc1cccc2c1C(=O)c1c(O)c3c(c(O)c1C2=O)CC(O)(/C(C)=N/NC(=O)CCCCC(=O)N/N=C(\C)C1(O)Cc2c(O)c4c(c(O)c2C(OC2CC(N)C(O)C(C)O2)C1)C(=O)c1c(OC)cccc1C4=O)CC3OC1CC(N)C(O)C(C)O1 (stereo unspecified)
dose: 0.39 mg/kg/injection, schedule: Q01DX009 (ip), vehicle: water
  T/C: 130 and 145 % of control
dose: 0.78 mg/kg/injection, schedule: Q01DX009 (ip), vehicle: water
  T/C: 142 % of control
dose: 25.0 mg/kg/injection, schedule: Q01DX009 (ip), vehicle: water
  survivor count: 6 of 6

## O=C1/C(=C/c2ccc(Cl)cc2)SC(=S)N1C1CC1
dose: 100.0 mg/kg/injection, schedule: Q01DX005 (ip), vehicle: Klucel (hydroxypropylcellulose) (HPC)
  survivor count: 5 of 5
[7]
  survivor count: 5 of 5

## N#Cc1nc(CC(=O)c2ccccc2)c(CC(=O)c2ccccc2)nc1C#N
[8]
  survivor count: 6 of 6

## N#CCCCOCCCOCCCOCCCOCCCOCCCC#N
dose: 100.0 mg/kg/injection, schedule: Q01DX005 (ip), vehicle: saline with Tween-80
  T/C: 130 % of control

## CC(=O)OCCOCNC(=S)N/N=C/c1ccccn1
[10]
  T/C: 131 % of control
[11]
  survivor count: 5 of 6

## CCNC(=O)OCc1c(C)nc2n1CCS2
[7]
  survivor count: 1 of 6

## CCOC(=O)/C(C#N)=C/c1ccc(C)o1
[10]
  survivor count: 3 of 6
[11]
  survivor count: 0 of 6
